{"source": "ChEMBL document CHEMBL2311293", "about": "“Discovery of agonists of cannabinoid receptor 1 with restricted central nervous system penetration aimed for treatment of gastroesophageal reflux disease” (J Med Chem, 2013)", "experiment": "Lipophilicity, log D of the compound", "settings": "octanol/water"}
{"smiles": "CS(=O)(=O)Cc1ccc(C(=O)Nc2cccnc2C(=O)NCC2CCC2)c2ccccc12", "values": [{"measurement": "logD", "value": 5.2}]}
